Source: article PMC12808100, “The non-catalytic DNA polymerase ε subunit is an NPF motif recognition protein” (Nature Communications, 2025)
These are yes or no findings as the source states them, for the method shown. In cells and extracts the contact can be indirect. These calls come from enrichment with a bait or labelling near it, and not all partners need be listed. For part of these data: A no says only that the protein was not detected with the bait. Sequences can lack the tags named with a protein.

Tests used:
[1] = target: His6-AviTag-MBP-TEV-POLE2 (human) (UniProt P56282); experiment: native holdup (nHU) with mass spectrometry; single point; biotinylated His6-avi-MBP-POLE2 bait on streptavidin resin at 26 μM, His6-avi-MBP as control; Jurkat extract, 4 °C, 2 h; label-free MS of the supernatant; apparent; only the target purified
[2] = target: C-terminally MAC3-tagged POLE2, wild type (human) (UniProt P56282); experiment: proximity labelling; C-terminally MAC3-tagged (ultraID) POLE2 variants in Flp-In T-REx 293 cells, tetracycline 24 h, 50 μM biotin 3 h; Strep-Tactin purification, mass spectrometry, SAINTexpress against GFP control
[3] = target: C-terminally MAC3-tagged POLE2 Y311F (human) (UniProt P56282); experiment: as above
[4] = target: C-terminally MAC3-tagged POLE2 E520A (human) (UniProt P56282); experiment: as above
[5] = target: C-terminally MAC3-tagged POLE2 S522A (human) (UniProt P56282); experiment: as above

Binder | binding [1] | binding [2] | binding [3] | binding [4] | binding [5]
LMO4, endogenous (protein, UniProt P61968 1-165) MVNPGSSSQPPPVTAGSLSWKRCAGCGGKIADRFLLYAMDSYWHSRCLKCSCCQAQLGDIGTSCYTKSGMILCRNDYIRLFGNSGACSACGQSIPASELVMRAQGNVYHLKCFTCSTCRNRLVPGDRFHYINGSLFCEHDRPTALINGHLNSLQSNPLLPDQKVC | binds | – | – | – | –
PYGO2, endogenous (protein, UniProt Q9BRQ0 1-406) MAASAPPPPDKLEGGGGPAPPPAPPSTGRKQGKAGLQMKSPEKKRRKSNTQGPAYSHLTEFAPPPTPMVDHLVASNPFEDDFGAPKVGVAAPPFLGSPVPFGGFRVQGGMAGQVPPGYSTGGGGGPQPLRRQPPPFPPNPMGPAFNMPPQGPGYPPPGNMNFPSQPFNQPLGQNFSPPSGQMMPGPVGGFGPMISPTMGQPPRAELGPPSLSQRFAQPGAPFGPSPLQRPGQGLPSLPPNTSPFPGPDPGFPGPGGEDGGKPLNPPASTAFPQEPHSGSPAAAVNGNQPSFPPNSSGRGGGTPDANSLAPPGKAGGGSGPQPPPGLVYPCGACRSEVNDDQDAILCEASCQKWFHRECTGMTESAYGLLTTEASAVWACDLCLKTKEIQSVYIREGMGQLVAANDG | no binding (tested: 26 μM POLE2 concentration) | – | – | – | –
POLE4, endogenous (protein, UniProt Q9NR33 1-117) MAAAAAAGSGTPREEEGPAGEAAASQPQAPTSVPGARLSRLPLARVKALVKADPDVTLAGQEAIFILARAAELFVETIAKDAYCCAQQGKRKTLQRRDLDNAIEAVDEFAFLEGTLD | – | binds | – | – | –
GLB1, endogenous (protein, UniProt P16278 29-677) QRMFEIDYSRDSFLKDGQPFRYISGSIHYSRVPRFYWKDRLLKMKMAGLNAIQTYVPWNFHEPWPGQYQFSEDHDVEYFLRLAHELGLLVILRPGPYICAEWEMGGLPAWLLEKESILLRSSDPDYLAAVDKWLGVLLPKMKPLLYQNGGPVITVQVENEYGSYFACDFDYLRFLQKRFRHHLGDDVVLFTTDGAHKTFLKCGALQGLYTTVDFGTGSNITDAFLSQRKCEPKGPLINSEFYTGWLDHWGQPHSTIKTEAVASSLYDILARGASVNLYMFIGGTNFAYWNGANSPYAAQPTSYDYDAPLSEAGDLTEKYFALRNIIQKFEKVPEGPIPPSTPKFAYGKVTLEKLKTVGAALDILCPSGPIKSLYPLTFIQVKQHYGFVLYRTTLPQDCSNPAPLSSPLNGVHDRAYVAVDGIPQGVLERNNVITLNITGKAGATLDLLVENMGRVNYGAYINDFKGLVSNLTLSSNILTDWTIFPLDTEDAVRSHLGGWGHRDSGHHDEAWAHNSSNYTLPAFYMGNFSIPSGIPDLPQDTFIQFPGWTKGQVWINGFNLGRYWPARGPQLTLFVPQHILMTSAPNTITVLELEWAPCSSDDPELCAVTFVDRPVIGSSVTYDHPSKPVEKRLMPPPPQKNKDSWLDHV | binds | binds | – | – | –

Further lines, results first:

binding [1] | binding [2] | binding [3] | binding [4] | binding [5] | Binder
binds | binds | – | – | – | PYCR1, endogenous (protein, UniProt P32322 1-319) MSVGFIGAGQLAFALAKGFTAAGVLAAHKIMASSPDMDLATVSALRKMGVKLTPHNKETVQHSDVLFLAVKPHIIPFILDEIGADIEDRHIVVSCAAGVTISSIEKKLSAFRPAPRVIRCMTNTPVVVREGATVYATGTHAQVEDGRLMEQLLSSVGFCTEVEEDLIDAVTGLSGSGPAYAFTALDALADGGVKMGLPRRLAVRLGAQALLGAAKMLLHSEQHPGQLKDNVSSPGGATIHALHVLESGGFRSLLINAVEASCIRTRELQSMADQEQVSPAAIKKTILDKVKLDSPAGTALSPSGHTKLLPRSLAPAGKD
binds | – | – | – | – | SSBP3, endogenous (protein, UniProt Q9BWW4 1-388) MFAKGKGSAVPSDGQAREKLALYVYEYLLHVGAQKSAQTFLSEIRWEKNITLGEPPGFLHSWWCVFWDLYCAAPERRDTCEHSSEAKAFHDYSAAAAPSPVLGNIPPNDGMPGGPIPPGFFQGPPGSQPSPHAQPPPHNPSSMMGPHSQPFMSPRYAGGPRPPIRMGNQPPGGVPGTQPLLPNSMDPTRQQGHPNMGGSMQRMNPPRGMGPMGPGPQNYGSGMRPPPNSLGPAMPGINMGPGAGRPWPNPNSANSIPYSSSSPGTYVGPPGGGGPPGTPIMPSPADSTNSSDNIYTMINPVPPGGSRSNFPMGPGSDGPMGGMGGMEPHHMNGSLGSGDIDGLPKNSPNNISGISNPPGTPRDDGELGGNFLHSFQNDNYSPSMTMSV
– | binds | no binding | no binding | no binding | Protein downstream neighbor of Son (DONSON), endogenous (protein, UniProt Q9NYP3 1-566) MALSVPGYSPGFRKPPEVVRLRRKRARSRGAAASPPRELTEPAARRAALVAGLPLRPFPAAGGRGGGSGGGPAAARRNPFARLDNRPRVAAEPPDGPAREQPEAPVPFLDSNQENDLLWEEKFPERTTVTELPQTSHVSFSEPDIPSSKSTELPVDWSIKTRLLFTSSQPFTWADHLKAQEEAQGLVQHCRATEVTLPKSIQDPKLSSELRCTFQQSLIYWLHPALSWLPLFPRIGADRKMAGKTSPWSNDATLQHVLMSDWSVSFTSLYNLLKTKLCPYFYVCTYQFTVLFRAAGLAGSDLITALISPTTRGLREAMRNEGIEFSLPLIKESGHKKETASGTSLGYGEEQAISDEDEEESFSWLEEMGVQDKIKKPDILSIKLRKEKHEVQMDHRPESVVLVKGINTFTLLNFLINSKSLVATSGPQAGLPPTLLSPVAFRGATMQMLKARSVNVKTQALSGYRDQFSLEITGPIMPHSLHSLTMLLKSSQSGSFSAVLYPHEPTAVFNICLQMDKVLDMEVVHKELTNCGLHPNTLEQLSQIPLLGKSSLRNVVLRDYIYNWRS
binds | binds | binds | – | – | WDHD1, endogenous (protein, UniProt O75717 1-1129) MPATRKPMRYGHTEGHTEVCFDDSGSFIVTCGSDGDVRIWEDLDDDDPKFINVGEKAYSCALKSGKLVTAVSNNTIQVHTFPEGVPDGILTRFTTNANHVVFNGDGTKIAAGSSDFLVKIVDVMDSSQQKTFRGHDAPVLSLSFDPKDIFLASASCDGSVRVWQISDQTCAISWPLLQKCNDVINAKSICRLAWQPKSGKLLAIPVEKSVKLYRRESWSHQFDLSDNFISQTLNIVTWSPCGQYLAAGSINGLIIVWNVETKDCMERVKHEKGYAICGLAWHPTCGRISYTDAEGNLGLLENVCDPSGKTSSSKVSSRVEKDYNDLFDGDDMSNAGDFLNDNAVEIPSFSKGIINDDEDDEDLMMASGRPRQRSHILEDDENSVDISMLKTGSSLLKEEEEDGQEGSIHNLPLVTSQRPFYDGPMPTPRQKPFQSGSTPLHLTHRFMVWNSIGIIRCYNDEQDNAIDVEFHDTSIHHATHLSNTLNYTIADLSHEAILLACESTDELASKLHCLHFSSWDSSKEWIIDLPQNEDIEAICLGQGWAAAATSALLLRLFTIGGVQKEVFSLAGPVVSMAGHGEQLFIVYHRGTGFDGDQCLGVQLLELGKKKKQILHGDPLPLTRKSYLAWIGFSAEGTPCYVDSEGIVRMLNRGLGNTWTPICNTREHCKGKSDHYWVVGIHENPQQLRCIPCKGSRFPPTLPRPAVAILSFKLPYCQIATEKGQMEEQFWRSVIFHNHLDYLAKNGYEYEESTKNQATKEQQELLMKMLALSCKLEREFRCVELADLMTQNAVNLAIKYASRSRKLILAQKLSELAVEKAAELTATQVEEEEEEEDFRKKLNAGYSNTATEWSQPRFRNQVEEDAEDSGEADDEEKPEIHKPGQNSFSKSTNSSDVSAKSGAVTFSSQGRVNPFKVSASSKEPAMSMNSARSTNILDNMGKSSKKSTALSRTTNNEKSPIIKPLIPKPKPKQASAASYFQKRNSQTNKTEEVKEENLKNVLSETPAICPPQNTENQRPKTGFQMWLEENRSNILSDNPDFSDEADIIKEGMIRFRVLSTEERKVWANKAKGETASEGTEAKKRKRVVDESDETENQEEKAKENLNLSKKQKPLDFSTNQKLSAFAFKQE
